According to article doi:10.1101/2023.09.06.556408:
These are yes or no findings as the source states them, for the method shown. In cells and extracts the contact can be indirect. A result given as binding can be weak or reduced; the word gives no strength. Values belong to the molecule of their own block, whether it stands above or below them.

The chains behind the UniProt entries cited, without tags or fusion partners. Where a name states a change or a piece, a line headed by the entry shows the natural chain unless it says otherwise.
UniProt P00481: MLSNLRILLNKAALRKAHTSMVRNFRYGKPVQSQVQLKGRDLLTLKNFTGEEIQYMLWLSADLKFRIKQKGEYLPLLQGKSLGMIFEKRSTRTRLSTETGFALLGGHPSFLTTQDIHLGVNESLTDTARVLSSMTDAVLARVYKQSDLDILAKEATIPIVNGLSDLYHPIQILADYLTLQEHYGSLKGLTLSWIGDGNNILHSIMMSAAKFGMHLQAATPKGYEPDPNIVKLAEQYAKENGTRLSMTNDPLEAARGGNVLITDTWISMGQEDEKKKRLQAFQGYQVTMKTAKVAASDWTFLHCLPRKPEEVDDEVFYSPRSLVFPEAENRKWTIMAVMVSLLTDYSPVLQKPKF
UniProt Q15388: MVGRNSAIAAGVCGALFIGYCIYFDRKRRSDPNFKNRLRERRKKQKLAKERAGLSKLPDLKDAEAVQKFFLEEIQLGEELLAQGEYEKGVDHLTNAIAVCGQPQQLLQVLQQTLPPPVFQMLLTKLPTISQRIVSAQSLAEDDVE

Biological target: ornithine transcarbamylase (OTC)-V5 (rat) (UniProt P00481)
Experiment: co-IP

binding: binds
Molecule: TOMM20 (from UniProt Q15388 1-145)

binding: binds
B1: TOMM40 (protein, UniProt O96008 1-361)
chain: MGNVLAASSPPAGPPPPPAPALVGLPPPPPSPPGFTLPPLGGSLGAGTSTSRSSERTPGAATASASGAAEDGACGCLPNPGTFEECHRKCKELFPIQMEGVKLTVNKGLSNHFQVNHTVALSTIGESNYHFGVTYVGTKQLSPTEAFPVLVGDMDNSGSLNAQVIHQLGPGLRSKMAIQTQQSKFVNWQVDGEYRGSDFTAAVTLGNPDVLVGSGILVAHYLQSITPCLALGGELVYHRRPGEEGTVMSLAGKYTLNNWLATVTLGQAGMHATYYHKASDQLQVGVEFEASTRMQDTSVSFGYQLDLPKANLLFKGSVDSNWIVGATLEKKLPPLPLTLALGAFLNHRKNKFQCGFGLTIG
